For some assays here: A negative result means that nothing was seen under these conditions. For some assays here: A weaker result is weaker than the reference pair of the same experiment.
Columns and labels:
[1] = tested on: glycated hemoglobin HbA1c; experiment: binding assay; conditions: impedance screen at 25 nM; did not show good binding; purified native protein; single-stranded DNA
[2] = tested on: hemoglobin (Hb, non-glycated / total Hb); experiment: binding assay; conditions: impedance; no significant response with non-glycated Hb; purified native protein; single-stranded DNA

“CGCACACCAGCACACTCAAAAGAACATACAAAGAACGTCGATCCACATACCACGGCTGCC [G22]”: binds more weakly [1].
“GGGGACACAGCAACACACCCACCCACCAGCCCCAGCATCATGCCCATCCGTCGTGTGTG [G20]”: no binding [2].

Reference: US9863962, “Aptamers and sensing technology used for detection of glycated hemoglobin in whole blood” (Alfaisal University)
